Measured values reported in article PMC9039064.
Results are given in words; binding and its absence hold for the method and conditions named. Binding seen in cells or lysates may run through a third protein. These calls come from enrichment with a bait or labelling near it, and not all partners need be listed.

The chains behind the UniProt entries cited, without tags or fusion partners.
UniProt Q00987: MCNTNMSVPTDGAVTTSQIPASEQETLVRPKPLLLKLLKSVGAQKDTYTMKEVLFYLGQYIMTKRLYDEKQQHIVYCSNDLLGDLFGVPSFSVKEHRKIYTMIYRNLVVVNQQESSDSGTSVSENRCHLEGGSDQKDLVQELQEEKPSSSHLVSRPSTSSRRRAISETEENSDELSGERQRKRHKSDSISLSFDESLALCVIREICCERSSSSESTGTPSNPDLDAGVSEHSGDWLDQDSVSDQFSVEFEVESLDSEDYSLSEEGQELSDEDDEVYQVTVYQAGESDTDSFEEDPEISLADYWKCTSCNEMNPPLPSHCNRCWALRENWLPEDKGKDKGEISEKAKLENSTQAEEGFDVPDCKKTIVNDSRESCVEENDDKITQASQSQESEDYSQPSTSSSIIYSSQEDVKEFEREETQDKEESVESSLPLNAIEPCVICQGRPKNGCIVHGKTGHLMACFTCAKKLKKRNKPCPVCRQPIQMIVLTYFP
UniProt Q9Y566: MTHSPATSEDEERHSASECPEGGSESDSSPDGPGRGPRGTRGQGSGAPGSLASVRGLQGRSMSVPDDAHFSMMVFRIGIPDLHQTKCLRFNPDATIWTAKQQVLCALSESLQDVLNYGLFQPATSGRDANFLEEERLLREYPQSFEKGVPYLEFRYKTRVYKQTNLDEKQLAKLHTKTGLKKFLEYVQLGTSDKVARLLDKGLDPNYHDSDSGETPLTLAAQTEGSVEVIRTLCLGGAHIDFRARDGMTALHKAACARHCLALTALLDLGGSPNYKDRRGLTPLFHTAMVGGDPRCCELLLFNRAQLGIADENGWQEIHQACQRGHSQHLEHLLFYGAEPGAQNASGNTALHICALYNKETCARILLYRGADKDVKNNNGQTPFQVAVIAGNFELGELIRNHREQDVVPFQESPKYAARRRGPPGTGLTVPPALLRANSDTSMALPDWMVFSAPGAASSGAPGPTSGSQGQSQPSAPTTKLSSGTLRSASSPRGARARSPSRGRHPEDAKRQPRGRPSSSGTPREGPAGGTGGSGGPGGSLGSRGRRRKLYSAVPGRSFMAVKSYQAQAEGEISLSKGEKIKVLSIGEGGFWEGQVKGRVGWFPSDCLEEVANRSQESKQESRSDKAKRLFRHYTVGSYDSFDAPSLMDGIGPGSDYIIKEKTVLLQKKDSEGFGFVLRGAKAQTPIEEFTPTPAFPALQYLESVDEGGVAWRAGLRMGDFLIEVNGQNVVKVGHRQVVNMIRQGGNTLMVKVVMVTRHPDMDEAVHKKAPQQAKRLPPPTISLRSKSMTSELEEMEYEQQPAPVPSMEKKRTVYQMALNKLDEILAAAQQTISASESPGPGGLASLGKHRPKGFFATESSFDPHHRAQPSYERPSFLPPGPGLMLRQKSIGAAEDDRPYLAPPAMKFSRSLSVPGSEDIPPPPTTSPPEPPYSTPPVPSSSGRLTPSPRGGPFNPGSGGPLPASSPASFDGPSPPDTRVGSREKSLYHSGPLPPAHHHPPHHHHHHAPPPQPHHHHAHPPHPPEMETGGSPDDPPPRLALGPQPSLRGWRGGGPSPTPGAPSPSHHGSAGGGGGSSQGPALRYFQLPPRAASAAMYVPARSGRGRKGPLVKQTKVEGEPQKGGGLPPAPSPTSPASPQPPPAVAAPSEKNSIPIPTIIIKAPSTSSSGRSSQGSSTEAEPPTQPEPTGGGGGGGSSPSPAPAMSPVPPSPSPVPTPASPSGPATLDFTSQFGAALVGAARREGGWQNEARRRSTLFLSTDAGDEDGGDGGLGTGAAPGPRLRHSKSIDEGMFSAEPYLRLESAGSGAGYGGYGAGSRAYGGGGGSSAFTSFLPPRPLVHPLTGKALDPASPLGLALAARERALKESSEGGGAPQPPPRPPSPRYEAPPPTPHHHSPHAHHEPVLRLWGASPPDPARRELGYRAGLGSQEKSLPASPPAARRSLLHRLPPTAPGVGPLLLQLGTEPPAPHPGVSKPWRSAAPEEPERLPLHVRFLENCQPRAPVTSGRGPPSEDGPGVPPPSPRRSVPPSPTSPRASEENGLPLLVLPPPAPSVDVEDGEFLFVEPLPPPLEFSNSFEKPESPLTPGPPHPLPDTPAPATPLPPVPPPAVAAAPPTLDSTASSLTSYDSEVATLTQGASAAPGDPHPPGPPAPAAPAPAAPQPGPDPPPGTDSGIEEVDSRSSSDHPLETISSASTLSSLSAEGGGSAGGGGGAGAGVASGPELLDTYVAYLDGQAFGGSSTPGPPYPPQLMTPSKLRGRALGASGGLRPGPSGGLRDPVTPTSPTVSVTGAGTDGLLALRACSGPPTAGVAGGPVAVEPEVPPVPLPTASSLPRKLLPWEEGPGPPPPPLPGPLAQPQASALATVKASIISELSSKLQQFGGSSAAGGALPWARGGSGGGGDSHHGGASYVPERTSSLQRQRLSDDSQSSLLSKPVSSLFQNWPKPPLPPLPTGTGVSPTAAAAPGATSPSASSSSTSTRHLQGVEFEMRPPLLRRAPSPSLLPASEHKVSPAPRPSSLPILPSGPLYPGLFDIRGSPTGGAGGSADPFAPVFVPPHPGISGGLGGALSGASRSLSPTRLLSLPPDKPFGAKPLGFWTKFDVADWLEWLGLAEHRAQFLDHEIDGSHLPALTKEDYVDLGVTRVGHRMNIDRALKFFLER

Molecular target: T1, KL (Klotho), bait of the immunoprecipitation with mass spectrometry (UniProt Q9UEF7)
T1 sequence: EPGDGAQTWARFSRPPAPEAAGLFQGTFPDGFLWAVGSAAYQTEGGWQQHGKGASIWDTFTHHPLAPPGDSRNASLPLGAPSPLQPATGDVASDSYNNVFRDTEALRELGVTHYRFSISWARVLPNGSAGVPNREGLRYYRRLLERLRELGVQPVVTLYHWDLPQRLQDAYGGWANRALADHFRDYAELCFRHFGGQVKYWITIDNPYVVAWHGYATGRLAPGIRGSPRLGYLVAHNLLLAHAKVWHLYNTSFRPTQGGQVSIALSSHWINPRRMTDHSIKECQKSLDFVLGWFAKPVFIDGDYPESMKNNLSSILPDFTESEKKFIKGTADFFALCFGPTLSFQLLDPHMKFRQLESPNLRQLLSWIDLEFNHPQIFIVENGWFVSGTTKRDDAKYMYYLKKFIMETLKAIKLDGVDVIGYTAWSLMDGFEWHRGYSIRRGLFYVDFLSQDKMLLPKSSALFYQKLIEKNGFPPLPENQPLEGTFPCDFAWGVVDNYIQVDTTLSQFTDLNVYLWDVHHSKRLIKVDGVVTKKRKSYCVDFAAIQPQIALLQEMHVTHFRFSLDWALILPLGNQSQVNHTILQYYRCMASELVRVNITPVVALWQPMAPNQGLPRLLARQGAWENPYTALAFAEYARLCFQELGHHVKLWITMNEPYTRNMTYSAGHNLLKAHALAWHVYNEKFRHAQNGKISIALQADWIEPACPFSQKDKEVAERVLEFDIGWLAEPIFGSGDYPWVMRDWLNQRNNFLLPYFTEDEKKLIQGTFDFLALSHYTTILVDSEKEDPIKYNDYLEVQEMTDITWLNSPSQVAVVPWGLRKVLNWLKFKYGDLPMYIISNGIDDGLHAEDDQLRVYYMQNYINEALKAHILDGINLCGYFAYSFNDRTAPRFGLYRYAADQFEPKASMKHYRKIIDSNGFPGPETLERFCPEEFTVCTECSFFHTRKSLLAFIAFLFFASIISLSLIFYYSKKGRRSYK
Experiment: affinity purification with mass spectrometry; immunoprecipitation of KL and mass spectrometry detection; cells not given; the paper calls it a previous IP-MS result and points to ref. 24

Row | binding | Substance
1 | binds | MDM2 found in the KL immunoprecipitate (IP-MS) (from UniProt Q00987 1-491)
2 | binds | SHANK1 found in the KL immunoprecipitate (IP-MS) (from UniProt Q9Y566 1-2161)
